{"source": "paper doi:10.64898/2025.12.02.691892", "binders": {"B1": {"name": "endogenous NF110 (protein, UniProt Q12906 1-894)", "chain": "MRPMRIFVNDDRHVMAKHSSVYPTQEELEAVQNMVSHTERALKAVSDWIDEQEKGSSEQAESDNMDVPPEDDSKEGAGEQKTEHMTRTLRGVMRVGLVAKGLLLKGDLDLELVLLCKEKPTTALLDKVADNLAIQLAAVTEDKYEILQSVDDAAIVIKNTKEPPLSLTIHLTSPVVREEMEKVLAGETLSVNDPPDVLDRQKCLAALASLRHAKWFQARANGLKSCVIVIRVLRDLCTRVPTWGPLRGWPLELLCEKSIGTANRPMGAGEALRRVLECLASGIVMPDGSGIYDPCEKEATDAIGHLDRQQREDITQSAQHALRLAAFGQLHKVLGMDPLPSKMPKKPKNENPVDYTVQIPPSTTYAITPMKRPMEEDGEEKSPSKKKKKIQKKEEKAEPPQAMNALMRLNQLKPGLQYKLVSQTGPVHAPIFTMSVEVDGNSFEASGPSKKTAKLHVAVKVLQDMGLPTGAEGRDSSKGEDSAEETEAKPAVVAPAPVVEAVSTPSAAFPSDATAEQGPILTKHGKNPVMELNEKRRGLKYELISETGGSHDKRFVMEVEVDGQKFQGAGSNKKVAKAYAALAALEKLFPDTPLALDANKKKRAPVPVRGGPKFAAKPHNPGFGMGGPMHNEVPPPPNLRGRGRGGSIRGRGRGRGFGGANHGGYMNAGAGYGSYGYGGNSATAGYSQFYSNGGHSGNASGGGGGGGGGSSGYGSYYQGDNYNSPVPPKHAGKKQPHGGQQKPSYGSGYQSHQGQQQSYNQSPYSNYGPPQGKQKGYNHGQGSYSYSNSYNSPGGGGGSDYNYESKFNYSGSGGRSGGNSYGSGGASYNPGSHGGYGGGSGGGSSYQGKQGGYSQSNYNSPGSGQNYSGPPSSYQSSQGGYGRNADHSMNYQYR"}}, "target": "endogenous NF90 (Nuclear Factor 90) (human (endogenous in LNCaP, LNCaP-abl, C4-2B, 22Rv1))", "test": "co-IP", "note": "Results are given in words; binding and its absence hold for the method and conditions named. In cells and extracts the contact can be indirect. Binding calls can cover weak binding; strength is not graded here.", "data": [{"binder": "B1", "values": [{"measurement": "binding", "value": "binds"}]}]}
